{"sequences": {"note": "Amino acid sequences for entries named in this document (tags omitted).", "UniProt Q8LAZ7": "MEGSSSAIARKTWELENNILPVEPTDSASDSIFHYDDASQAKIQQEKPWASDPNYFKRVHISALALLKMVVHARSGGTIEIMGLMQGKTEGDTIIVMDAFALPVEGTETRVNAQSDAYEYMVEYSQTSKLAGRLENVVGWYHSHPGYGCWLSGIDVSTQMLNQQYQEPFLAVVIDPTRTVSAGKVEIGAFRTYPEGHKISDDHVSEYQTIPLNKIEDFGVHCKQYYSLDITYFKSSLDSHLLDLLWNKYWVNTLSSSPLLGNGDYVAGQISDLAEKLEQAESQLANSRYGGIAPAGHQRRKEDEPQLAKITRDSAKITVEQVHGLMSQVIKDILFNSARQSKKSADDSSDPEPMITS"}, "source": "paper PMC5834205", "target": "T1, ABA …5 (ABI5) (Arabidopsis thaliana) (UniProt Q9SJN0)", "T1 sequence": "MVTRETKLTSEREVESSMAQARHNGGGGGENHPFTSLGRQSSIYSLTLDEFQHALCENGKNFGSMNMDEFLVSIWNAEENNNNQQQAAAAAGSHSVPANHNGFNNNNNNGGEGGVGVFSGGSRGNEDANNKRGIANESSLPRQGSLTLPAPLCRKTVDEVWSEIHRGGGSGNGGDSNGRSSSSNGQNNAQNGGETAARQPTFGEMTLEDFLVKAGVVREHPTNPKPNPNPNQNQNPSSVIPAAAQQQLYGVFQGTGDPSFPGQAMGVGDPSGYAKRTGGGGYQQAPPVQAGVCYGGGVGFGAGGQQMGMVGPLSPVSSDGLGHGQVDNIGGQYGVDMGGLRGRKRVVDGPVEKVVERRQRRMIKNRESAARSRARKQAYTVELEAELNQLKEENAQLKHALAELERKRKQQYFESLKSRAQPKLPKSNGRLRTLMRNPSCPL", "assay": "two-hybrid; Matchmaker LexA system; CSN5A or CSN5B in pB42AD (AD), ABI5 in pLexA (BD); yeast EGY48 with p8op-LacZ; SD/-His/-Trp/-Ura plates with X-Gal, blue colour", "note": "No constants are given. Whether binding was seen depends on the method and setting. Some results given as binding are weak or reduced against the parent protein; the word gives no strength.", "data": [{"substance": "CSN5A (from UniProt Q8LAZ7 1-357)", "values": [{"measurement": "binding", "result": "binds"}]}]}
